According to PubChem BioAssay AID200 (DTP/NCI, 2004):
The list does not hold the whole screen: it gathers tests that were run many times, whatever their T/C, doses with no T/C, and many T/C values between a quarter and a half above the control. Other doses and runs of a compound stand elsewhere. T/C: endpoint of the treated group in % of that of the vehicle group. Some doses have a count of surviving animals in place of a T/C: the source files T/C as zero there, which appears to mark a toxic dose or a test without result, not a measured value. Some survivor counts are full or nearly so, which does not show that the dose was tolerated: the source hardly ever lists a survival T/C far under the control, and the zero likely stands for such cases as well. Survivors were counted at the toxicity check, usually on the fifth day, unless a day is given; later deaths do not show. Schedules are NCI's codes, read here as Q, the interval in days (D) or hours (H), X, the number of doses. Counts like (3×) give the number of equal values in this list. Some entries hold several experiments; their values stand side by side, smallest first. For survival time, the PubChem record calls one and a half times the control and up active, and a quarter to a half above the control has no call in these data; cut-offs in other NCI protocols can differ. Some T/C values carry the count of animals alive at the toxicity check (mostly the fifth day); where none is given, no animal had died by that day.

System: B6C3F1 mice, B16 melanoma ip, median survival T/C
Test: NCI In Vivo Anticancer Drug Screen. Data for tumor model B16 Melanoma (intraperitoneal) in B6C3F1 mice
Conditions: T/C endpoint: median survival time, schedule: Q01DX009 (ip), higher T/C = longer survival
Method in brief: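 Readout: survival or tumor size in treated mice relative to vehicle controls (T/C). Model uses transplantable tumors grown in mice.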

[1] = dose: 200.0 mg/kg/injection, vehicle: saline with Tween-80
[2] = dose: 200.0 mg/kg/injection, vehicle: Klucel (hydroxypropylcellulose) (HPC)
[3] = dose: 20.0 mg/kg/injection, vehicle: saline
[4] = dose: 20.0 mg/kg/injection, vehicle: water
[5] = dose: 50.0 mg/kg/injection, vehicle: saline with Tween-80
[6] = dose: 100.0 mg/kg/injection, vehicle: saline with Tween-80
[7] = dose: 400.0 mg/kg/injection, vehicle: saline
[8] = dose: 0.06 mg/kg/injection, vehicle: saline + alcohol
[9] = dose: 0.12 mg/kg/injection, vehicle: saline + alcohol
[10] = dose: 6.0 mg/kg/injection, vehicle: Klucel (hydroxypropylcellulose) (HPC)

**Q.** With N#Cc1ccc(NN=O)nc1 as the molecule, how does the T/C (dose: 6.25 mg/kg/injection, vehicle: water) read?
**A.** The T/C was 130 % of control [9 of 10 alive].

**Q.** What about the T/C (dose: 12.5 mg/kg/injection, vehicle: saline) of the same molecule?
**A.** The T/C was 129 % of control.

**Q.** And the T/C (dose: 12.5 mg/kg/injection, vehicle: water)?
**A.** Its T/C is 140 % of control.

**Q.** What about the survivor count (dose: 25.0 mg/kg/injection, vehicle: water) of the same molecule?
**A.** The survivor count was 10 of 10.

**Q.** What about the survivor count (dose: 50.0 mg/kg/injection, vehicle: water) of the same molecule?
**A.** Its survivor count is 10 of 10.

**Q.** For CCOC(=O)C(C)(C)Oc1ccc(Cl)cc1, which survivor count [1] is on record?
**A.** The survivor count was 10 of 10.

**Q.** And the survivor count (dose: 400.0 mg/kg/injection, vehicle: saline with Tween-80)?
**A.** Its survivor count is 7 of 10 and 9 of 10.

**Q.** C[As](C)SCCC(N)C(=O)NC(CCS[As](C)C)C(=O)O (stereo not drawn) was tested. Which survivor count (dose: 100.0 mg/kg/injection, vehicle: Klucel (hydroxypropylcellulose) (HPC)) did it give?
**A.** Its survivor count is 10 of 10.

**Q.** What about the survivor count [2] of the same molecule?
**A.** Its survivor count is 10 of 10.

**Q.** Which T/C (dose: 1.25 mg/kg/injection, vehicle: saline) does the source give for CCC12C[N+]3([O-])CCc4c([nH]c5ccccc45)C(C(=O)OC)(c4cc5c(cc4OC)N(C)C4C(O)(C(=O)OC)C(OC(C)=O)C6(CC)C=CCN7CCC54C76)CC(C3)C1O2 (stereo not drawn) here?
**A.** The T/C was 147 % of control.

**Q.** What about the T/C (dose: 1.25 mg/kg/injection, vehicle: water) of the same molecule?
**A.** Its T/C is 140 % of control.

**Q.** And the T/C (dose: 5.0 mg/kg/injection, vehicle: water)?
**A.** The T/C was 138 % of control.

**Q.** What about the T/C (dose: 10.0 mg/kg/injection, vehicle: water) of the same molecule?
**A.** The T/C was 138 % of control.

**Q.** What about the survivor count [3] of the same molecule?
**A.** The survivor count was 8 of 10.

**Q.** What about the T/C [4] of the same molecule?
**A.** The T/C was 135 % of control.

**Q.** And the survivor count [4]?
**A.** Its survivor count is 10 of 10.

**Q.** Which T/C (dose: 150.0 mg/kg/injection, vehicle: Klucel (hydroxypropylcellulose) (HPC)) does the source give for Nc1ncnc2c1ncn2C1OC(CO)CC1O (stereo not drawn) here?
**A.** The T/C was 132 % of control.

**Q.** And the survivor count (dose: 300.0 mg/kg/injection, vehicle: Klucel (hydroxypropylcellulose) (HPC))?
**A.** Its survivor count is 10 of 10.

**Q.** COc1cc(C(C)(C)C)cc(OC)c1C(O)(c1c(OC)cc(C(C)(C)C)cc1OC)c1c(OC)cc(C(C)(C)C)cc1OC was tested. Which T/C [5] did it give?
**A.** Its T/C is 126 % of control.

**Q.** And the survivor count [6]?
**A.** The survivor count was 10 of 10.

**Q.** What about the survivor count [1] of the same molecule?
**A.** The survivor count was 5 of 10 and 10 of 10.

**Q.** For COC(=O)C[C@](O)(CCC(C)(C)O)C(=O)O[C@@H]1C(OC)=C[C@]23CCCN2CCc2cc4c(cc2[C@H]13)OCO4, which T/C (dose: 0.25 mg/kg/injection, vehicle: saline) is on record?
**A.** Its T/C is 136 % of control.

**Q.** And the T/C (dose: 2.0 mg/kg/injection, vehicle: saline)?
**A.** Its T/C is 148 % of control.

**Q.** And the survivor count (dose: 4.0 mg/kg/injection, vehicle: saline)?
**A.** Its survivor count is 6 of 10 and 7 of 10.

**Q.** Which survivor count [7] does the source give for O=C1OC(=O)[C@H]2[C@@H]1[C@H]1C=C[C@@H]2OC1=O here?
**A.** The survivor count was 9 of 10.

**Q.** Which T/C (dose: 2.5 mg/kg/injection, vehicle: saline) does the source give for Cc1nc(N)nc(N)c1-c1ccc(Cl)c(Cl)c1 here?
**A.** The T/C was 128 % of control.

**Q.** What about the survivor count (dose: 5.0 mg/kg/injection, vehicle: saline) of the same molecule?
**A.** The survivor count was 10 of 10 (2×).

**Q.** What about the survivor count (dose: 10.0 mg/kg/injection, vehicle: saline) of the same molecule?
**A.** The survivor count was 10 of 10 (2×).

**Q.** And the survivor count [3]?
**A.** Its survivor count is 9 of 10.

**Q.** Which results are given for O=C(Nc1ccc(C(=O)O)cc1)Nc1nccs1?
**A.** T/C (dose: 25.0 mg/kg/injection, vehicle: distilled water + Tween-80): 130 % of control; T/C (dose: 50.0 mg/kg/injection, vehicle: distilled water + Tween-80): 127 % of control; T/C (dose: 100.0 mg/kg/injection, vehicle: distilled water + Tween-80): 137 % of control; T/C (dose: 200.0 mg/kg/injection, vehicle: distilled water + Tween-80): 128 % of control

**Q.** How did the survivor count (dose: 50.0 mg/kg/injection, vehicle: distilled water + alcohol) turn out when CN(C)c1ccc2c(NCCCCCCNc3ccnc4cc(N(C)C)ccc34)ccnc2c1 was run?
**A.** The survivor count was 8 of 10.

**Q.** COC(=O)[C@@]12OC[C@]34[C@H]([C@@H](O)[C@@H]1O)[C@@]1(C)CC(=O)C(O)=C(C)[C@@H]1C[C@H]3OC(=O)[C@H](OC(=O)/C=C(\C)C1(C)CO1)[C@@H]24 (stereo partly drawn) was tested. Which T/C (dose: 0.01 mg/kg/injection, vehicle: saline + alcohol) did it give?
**A.** Its T/C is 136 % of control [9 of 10 alive].

**Q.** What about the T/C (dose: 0.03 mg/kg/injection, vehicle: saline + alcohol) of the same molecule?
**A.** Its T/C is 129 % of control [9 of 10 alive].

**Q.** What about the T/C [8] of the same molecule?
**A.** Its T/C is 131 % of control.

**Q.** What about the survivor count [8] of the same molecule?
**A.** Its survivor count is 10 of 10.

**Q.** And the T/C [9]?
**A.** Its T/C is 143 % of control.

**Q.** And the survivor count [9]?
**A.** The survivor count was 2 of 10 and 5 of 10.

**Q.** What about the survivor count (dose: 0.25 mg/kg/injection, vehicle: saline + alcohol) of the same molecule?
**A.** Its survivor count is 2 of 10.

**Q.** And the survivor count (dose: 0.5 mg/kg/injection, vehicle: saline + alcohol)?
**A.** Its survivor count is 0 of 10 and 7 of 10.

**Q.** And the survivor count (dose: 1.0 mg/kg/injection, vehicle: saline + alcohol)?
**A.** Its survivor count is 4 of 10.

**Q.** And the survivor count (dose: 2.0 mg/kg/injection, vehicle: saline + alcohol)?
**A.** Its survivor count is 0 of 10.

**Q.** What about the survivor count (dose: 4.0 mg/kg/injection, vehicle: saline + alcohol) of the same molecule?
**A.** The survivor count was 0 of 10.

**Q.** Which results are given for Nc1cc2c3c(cccc3c1)C(=O)N(CCN1CCCC1)C2=O?
**A.** T/C (dose: 25.0 mg/kg/injection, vehicle: saline with Tween-80): 138 and 143 % of control; T/C [5]: 149 % of control; survivor count [6]: 10 of 10

**Q.** Which results are given for C=C1C(C)C2C(Cc3ccccc3)NC(=O)C23C(OC(C)=O)/C=C/C(C)(O)CC(C)C/C=C/C3C1O (stereo not drawn)?
**A.** T/C [10]: 146 % of control; survivor count [10]: 5 of 10; survivor count (dose: 12.0 mg/kg/injection, vehicle: Klucel (hydroxypropylcellulose) (HPC)): 3 of 10; survivor count (dose: 12.5 mg/kg/injection, vehicle: Klucel (hydroxypropylcellulose) (HPC)): 7 of 10; survivor count (dose: 12.5 mg/kg/injection, vehicle: saline with Tween-80): 0 of 10; survivor count (dose: 25.0 mg/kg/injection, vehicle: Klucel (hydroxypropylcellulose) (HPC)): 0 of 10; survivor count (dose: 50.0 mg/kg/injection, vehicle: Klucel (hydroxypropylcellulose) (HPC)): 0 of 10

**Q.** What does the source list for Nc1c(Cl)[nH]cnc1=S?
**A.** survivor count (dose: 200.0 mg/kg/injection, vehicle: saline): 7 of 10; survivor count [7]: 8 of 10

**Q.** O=C1C=C(N2CC2)C(=O)C(N2CC2)=C1N1CC1 was tested. Which T/C (dose: 12.5 micrograms/kg/injection, vehicle: saline) did it give?
**A.** The T/C was 130 % of control.

**Q.** What about the T/C (dose: 25.0 micrograms/kg/injection, vehicle: saline) of the same molecule?
**A.** The T/C was 140 % of control.

**Q.** What about the T/C (dose: 50.0 micrograms/kg/injection, vehicle: saline) of the same molecule?
**A.** The T/C was 130 % of control.

**Q.** And the survivor count (dose: 100.0 micrograms/kg/injection, vehicle: saline)?
**A.** The survivor count was 9 of 10.

**Q.** And the survivor count (dose: 200.0 micrograms/kg/injection, vehicle: saline)?
**A.** The survivor count was 6 of 10.

**Q.** Which survivor count (dose: 200.0 mg/kg/injection, vehicle: water) does the source give for ClCC[N+]12CC[N+](CCCl)(CC1)C2 here?
**A.** The survivor count was 4 of 10.

**Q.** Which survivor count [2] does the source give for COC(=O)Nc1cn2ccc(C(Cl)=C(Cl)Cl)cc2n1 here?
**A.** The survivor count was 8 of 8.

**Q.** With O=C(O)C(O)C(O)C1[O][Sb][O]C1C(=O)O (stereo not drawn) as the molecule, how does the survivor count (dose: 100.0 mg/kg/injection, vehicle: saline) read?
**A.** The survivor count was 2 of 10.

**Q.** For CCOC(=O)N1CCN(CCCCCCOc2ccc(C3CCCCC3)cc2)CC1, which survivor count (dose: 6.25 mg/kg/injection, vehicle: saline) is on record?
**A.** The survivor count was 10 of 10.

**Q.** What about the survivor count (dose: 25.0 mg/kg/injection, vehicle: saline) of the same molecule?
**A.** The survivor count was 10 of 10.

**Q.** With CNC=O as the molecule, how does the survivor count (dose: 800.0 mg/kg/injection, vehicle: saline) read?
**A.** Its survivor count is 8 of 10.
